From PubChem BioAssay AID1347075 (National Center for Advancing Translational Sciences (NCATS), 2019)
Hit rate of the full screen: of about 400,000 compounds, about 5,500 (1.4%) were called active. This list was built around the results that the source calls inconclusive (neither active nor inactive); the mix of calls is not that of the screen. Calls come from the whole dose curve; as a rule, active = well fitted cell-killing curve with a large enough effect; inconclusive = small, poorly fitted or top-dose-only effect, or effect the other way; inactive = flat fitted curve, though single readings scatter. Where the call is inconclusive, the potency comes from a doubtful curve fit.

Assay: qHTS assay for MDR1-selective chemotherapeutics: Primary screen using the parental adenocarcinoma cell KB-3-1; note: nearly all actives have a fitted effect of over 60% in size
Details: KB-3-1 viability, CellTiter-Glo ATP luminescence, 72 h; activity change, negative = cytotoxic: at 46.1 µM (top of the series)
In short: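 Cells are dispensed, compounds pinned in, plates held at 37 °C for 72 h, then CellTiter-Glo is added and luminescence read after 10 minutes. Cell line: parental KB-3-1 in phenol-red-free DMEM, 10% FBS.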
% is set by controls: 0 for no effect and ±100 for the full control effect; potency is the fitted concentration of half-maximal effect.

| SMILES | Potency | activity change, negative = cytotoxic |
| --- | --- | --- |
| Cc1cc(C)n2nc(SC(C)C(=O)N(C)c3ccccc3)nc2n1 (stereo not drawn) | inactive | – |
| Cc1ccc(S(=O)(=O)NC(C)(C)C)cc1C(=O)OCC(=O)N1CCCC1=O | inactive | – |
| Cc1cccc(NC(=O)CSc2nnc(CNC(=O)c3ccc(S(=O)(=O)N(C)C)cc3)n2-c2ccc(F)cc2)c1 | inconclusive: 29.1 µM [rising, single point] | – |
| Cc1[nH]c2ccccc2c1SCC(=O)N1CCCc2ccccc21 | inconclusive: 25.9 µM [cytotoxic, single point] | – |
| O=C(c1ccc2c(=O)n(C3CCCC3)c(=S)[nH]c2c1)N1CCCCCC1 | inconclusive: 20.6 µM [cytotoxic, single point] | – |
| O=C(N/N=C(\c1ccccc1)c1ccccn1)c1cccc([N+](=O)[O-])c1 | inconclusive: 1.64 µM [cytotoxic, partial curve, poor fit] | – |
| O=c1ccc(-c2ccc(S(=O)(=O)NCC3CCN(Cc4cccc(F)c4)CC3)s2)n[nH]1 | – | inconclusive: -8.59% |
| O=C(N[C@@H](CO)C(=O)NCc1ccccc1)c1ccc(C(F)(F)F)cc1 | inconclusive: 7.31 µM [rising, partial curve] | – |
| O=C(CN1C(=O)C(=O)N(Cc2ccccc2)C1=O)Nc1cc(Cl)cc(Cl)c1 | active: 23.1 µM | – |
| C=C1[C@H](C)CN[C@H]1CCO | inactive | – |
| Cc1ccc2nc(N(CCCN(C)C)C(=O)c3ccc(S(=O)(=O)N(C)C)cc3)sc2c1 | inactive | – |
| CN(Cc1ccccc1)C(=O)CSc1nc(-c2ccc(F)cc2)cc(C(F)(F)F)n1 | inconclusive: 32.6 µM [cytotoxic, partial curve, poor fit] | – |
| Cc1cccc(NC(=S)NCc2ccc3[nH]c4c(c3c2)CCCC4)c1 | active: 16.4 µM | – |
| O=C1NC[C@H](CCCCN2C[C@H](Cc3ccc(O)cc3)N(CCC3CCCCC3)C(=O)C2=O)N(CCC2CCCCC2)C1=O | inconclusive: 29.1 µM [cytotoxic, single point] | – |
| Cc1nc(Nc2ccccc2)[nH]c(=O)c1CCC(C)C | inconclusive: 15.8 µM [cytotoxic, partial curve] | – |
| O=c1nc2ccccc2c2n1CC(CN1CCN(C(c3ccccc3)c3ccccc3)CC1)N2 (stereo not drawn) | inconclusive: 23.1 µM [cytotoxic, single point] | – |
| COc1cccc(NC(=O)CN(C)C(C)C(=O)NC(=O)NC2CCCCC2)c1 (stereo not drawn) | inactive | – |
| COC(=O)c1nc(-c2ccccc2)nc(-c2ccccc2)c1C(=O)OC | inconclusive: 23.1 µM [rising, single point] | – |
| CCCC(CCC)C(=O)NC1CC(=O)N(c2ccc3c(c2)OCCO3)C1 (stereo not drawn) | inactive | – |
| COc1ccccc1-n1c(SCC(=O)NCc2ccc3c(c2)OCO3)nc2cc([N+](=O)[O-])ccc21 | inactive | – |
| COc1ccc(CCNc2c3ccccc3nc3ccccc23)cc1OC | inconclusive: 20.6 µM [cytotoxic, single point] | – |
| COc1ccc(F)cc1-c1cc(C(=O)N2CCc3ccccc3C2)[nH]n1 | inactive | – |
| C=CCN(c1ccccc1OC)S(=O)(=O)c1cccc(C(=O)OCC(=O)c2c[nH]c3ccccc23)c1 | inconclusive: 29.1 µM [cytotoxic, single point] | – |

| SMILES | Potency | activity change, negative = cytotoxic |
| --- | --- | --- |
| CN(Cc1ccccc1)S(=O)(=O)c1ccc(C(=O)Nc2nnc(C3CC3)o2)cc1 | inconclusive: 29.1 µM [cytotoxic, single point] | – |
| COc1ccc(NC(=O)C2CCCN(c3nnc(C)c4c(C)n(-c5ccccc5)nc34)C2)cc1Cl (stereo not drawn) | inactive | – |
| Cc1nn(Cc2ccc(Cl)c(Cl)c2)c(C)c1NC(=O)c1sc2ccccc2c1Cl | inconclusive: 20.6 µM [cytotoxic, single point] | – |
| COC(=O)c1c(N2C(=O)[C@H]3[C@@H](C2=O)[C@]2(C(=O)Nc4c2ccc(C)c4C)N2CCC[C@@H]32)sc(C)c1C | inconclusive: 29.1 µM [rising, partial curve, poor fit] | – |
| CC1(c2ccccc2)NC(=O)N(CC(=O)Nc2ccc3c(c2)CCC3)C1=O (stereo not drawn) | inactive | – |
| COC(=O)c1sccc1NC(=O)c1cc(-c2cccc(C)c2)nc2ccccc12 | inconclusive: 16.4 µM [cytotoxic, partial curve, poor fit] | – |
| COc1ccc(S(=O)(=O)N2CCN(c3cccc(C)c3C)CC2)c2ccccc12 | inconclusive: 29.1 µM [cytotoxic, single point] | – |
| Cc1ccc(S(=O)(=O)N(CC(=O)NCCSc2ccc(Cl)cc2)c2ccccc2C)cc1 | inconclusive: 29.1 µM [cytotoxic, single point] | – |
| O=c1cccc2c1c1cc[nH]c3ccc(=O)n2c31 | inconclusive: 13 µM [cytotoxic, partial curve] | – |
| CCOC(=O)CNC(=O)c1sc2nc(C)cc(C)c2c1N | inconclusive: 29.1 µM [rising, single point] | – |
| CCCCNC(=S)N/N=C1\C(=O)c2cccc3cccc1c23 | inactive | – |
| O=C(NCc1ccccn1)Nc1ccccc1F | inactive | – |
| CC(C)Cc1nc2oc3c(N4CCN(CCO)CC4)ncnc3c2c2c1CCCC2 | inconclusive: 29.1 µM [cytotoxic, single point] | – |
| Cc1ccnc(NC(=O)Cc2ccc(-c3ccccc3)cc2)c1 | inconclusive: 29.1 µM [cytotoxic, single point] | – |
| CCOC(=O)COc1ccc2ccccc2c1/C=C/[N+](=O)[O-] | active: 18.4 µM | – |
| COc1ccc(NC(=O)COC(=O)c2cc(OC)c(OC)cc2NC(=O)c2ccco2)cc1OC | inactive | – |
| COc1ccc(Cl)cc1C(=O)Nc1nnc2n1CCS2 | inactive | – |
| COc1cccc(/C=C2/CCC(CN(C)C)C2=O)c1 (stereo not drawn) | inconclusive: 29.1 µM [cytotoxic, single point] | – |
| CCOCCCNC(=O)c1cn(C)c2ccc(S(=O)(=O)N3CCCCC3)cc2c1=O | inconclusive: 16.4 µM [rising, partial curve, poor fit] | – |
| CCc1cc2c(CN(C)Cc3ccccc3F)cc(=O)oc2cc1O | inconclusive: 29.1 µM [cytotoxic, single point] | – |
| Nc1nnc(SCc2ccccc2F)s1 | inconclusive: 29.1 µM [rising, single point] | – |
| Cc1cc(/C=C2/SC(=S)N(c3ccc([N+](=O)[O-])cc3)C2=O)c(C)n1-c1cccnc1 | inconclusive: 1.84 µM [cytotoxic, full curve] | – |
| COc1ccc(S(=O)(=O)N2CCCN(S(=O)(=O)c3ccc(OC)c(C)c3)CC2)cc1C | inconclusive: 20.6 µM [cytotoxic, single point] | – |

| SMILES | Potency | activity change, negative = cytotoxic |
| --- | --- | --- |
| C=Cc1ccc(Cn2c(=O)n(-c3cccc(Cl)c3)c(=O)c3c4c(sc32)CN(C(C)=O)CC4)cc1 | inconclusive: 29.1 µM [cytotoxic, single point] | – |
| O=c1cc(NCCc2ccccc2)c2ccccc2o1 | inconclusive: 23.1 µM [cytotoxic, single point] | – |
| CSCCC(NC(=O)COc1ccccc1)C(=O)N1CCN(C(C)=O)CC1 (stereo not drawn) | inconclusive: 18.4 µM [rising, partial curve, poor fit] | – |
| Cc1ccccc1Cn1c(=O)n(CCCC(=O)NCc2ccco2)c(=O)c2sccc21 | inconclusive: 23.1 µM [cytotoxic, single point] | – |
| N#Cc1c(-c2ccco2)cc(-c2ccccn2)nc1N | inactive | – |
| Cc1cc(C)c(C#N)c(N2CCN(C(=O)C3COc4ccccc4O3)CC2)n1 (stereo not drawn) | inactive | – |
| O=C(NCc1nc(-c2ccccc2)no1)c1ccc2c(c1)OCO2 | inconclusive: 18.4 µM [rising, single point] | – |
| CCN(CC)C(=O)c1ccc(S(=O)(=O)N2CCC(c3nc4ccccc4s3)CC2)cc1 | active: 20.6 µM | – |
| COc1cc(C)c(C(=O)CSc2nnc(CNC(=O)c3ccco3)n2C)cc1C | inconclusive: 0.164 µM [cytotoxic, full curve] | – |
| O=C(COc1ccc2ccccc2c1)Nc1ccc(Cc2ccncc2)cc1 | inconclusive: 8.2 µM [rising, partial curve] | – |
| COc1ccc(CC(N)c2csc(NC(=O)Nc3ccccc3C(C)C)n2)cc1 (stereo not drawn) | inconclusive: 29.1 µM [cytotoxic, single point] | – |
| CCOC(=O)C1=C(C2=CCCCC2)c2ccc(OC)cc2N(S(=O)(=O)C(F)(F)F)C1C(=O)OCC (stereo not drawn) | inactive | – |
| Cc1ccc2c(c1)C(=O)OC(C(=O)Nc1ncc(Cc3ccc(Cl)cc3)s1)C2 (stereo not drawn) | inactive | – |
| C/C(=N/Nc1ccnc2cc(Cl)ccc12)c1ccc(N)cc1 | inconclusive: 20.6 µM [cytotoxic, single point] | – |
| CC(C)CCNC(=O)c1onc(CSc2ccc(Cl)cc2)c1C(=O)NCCC(C)C | – | inconclusive: -6.95% |
| CN(C)CCCN(C(=O)CCc1ccccc1)c1nc2ccc(Cl)cc2s1 | inconclusive: 29.1 µM [cytotoxic, single point] | – |
| COc1ccc(N2CCN(C(=O)c3cc(N4C(=O)C5C6CCC(C6)C5C4=O)ccc3Cl)CC2)cc1 (stereo not drawn) | inconclusive: 23.1 µM [cytotoxic, single point] | – |
| Cc1cccc(C)c1-n1ncc(C(=O)NC2CCCC2)c1C1CCN(C(=O)OC(C)(C)C)CC1 | inactive | – |
| O=C(CCC(=O)Nc1ccc(Br)cc1)N/N=C/c1ccccc1O | inconclusive: 20.6 µM [cytotoxic, single point] | – |
| C=CCN1C(=O)NC(c2ccccc2)(C(F)(F)F)S/C1=C(\C#N)c1nnc(N2CCOCC2)n1-c1ccccc1 (stereo not drawn) | inactive | – |
| Nc1cc(Cl)ccc1C(=O)OCC(=O)NC1CCCCC1 | inconclusive: 29.1 µM [rising, single point] | – |
| Cc1cc(C)nc(CCNC(=O)c2cc(COc3ccccc3)on2)n1 | inconclusive: 0.184 µM [rising, full curve] | – |

Already shown: an excerpt of the list.

| SMILES | Potency | activity change, negative = cytotoxic |
| --- | --- | --- |
| Cc1cc(C)n2nc(SC(C)C(=O)N(C)c3ccccc3)nc2n1 (stereo not drawn) | inactive | – |
| Cc1ccc(S(=O)(=O)NC(C)(C)C)cc1C(=O)OCC(=O)N1CCCC1=O | inactive | – |
